In PubChem BioAssay AID248 (DTP/NCI, 2004):
The list does not hold the whole screen: it is rich in T/C values a quarter to a half above the control, in often repeated tests (any T/C) and in doses without a T/C. Other doses and runs of a compound stand elsewhere. T/C is the treated group as % of the vehicle group. Some doses have a count of surviving animals in place of a T/C: the source holds a T/C of zero for them, seemingly a mark for toxic or unscored doses. Some survivor counts are full or nearly so, which does not show that the dose was tolerated: survival well below the control is almost never listed, so the zero probably covers shortened survival too. Survivors were counted at the toxicity check, usually on the fifth day, unless a day is given; later deaths do not show. Schedule codes are those of the source, read here as Q, the interval in days (D) or hours (H), X, the number of doses. Some doses were run more than once; the values are given in rising order. Some structures stand for samples that the source files as different forms (salt, stereo form or complex); doses refer to the form tested.

Test system: L1210 leukemia ip in BDF1 mice, survival T/C
Experiment: NCI In Vivo Anticancer Drug Screen. Data for tumor model L1210 Leukemia (intraperitoneal) in B6D2F1 (BDF1) mice
Conditions: T/C endpoint: mean survival time, higher T/C = longer survival
[1] = dose: 100.0 mg/kg/injection, schedule: Q01DX009 (ip), vehicle: Klucel (hydroxypropylcellulose) (HPC)
[2] = dose: 200.0 mg/kg/injection, schedule: Q01DX009 (ip), vehicle: Klucel (hydroxypropylcellulose) (HPC)
[3] = dose: 400.0 mg/kg/injection, schedule: Q01DX009 (ip), vehicle: Klucel (hydroxypropylcellulose) (HPC)
[4] = dose: 400.0 mg/kg/injection, schedule: Q04DX003 (ip), vehicle: saline with Tween-80
[5] = dose: 200.0 mg/kg/injection, schedule: Q01DX009 (ip), vehicle: saline
[6] = dose: 400.0 mg/kg/injection, schedule: Q04DX002 (ip), vehicle: saline with Tween-80
[7] = dose: 400.0 mg/kg/injection, schedule: Q04DX003 (ip), vehicle: saline

SMILES: C/C=C(\C)c1cc(=O)c2c(C)cc3c(c2o1)C(=O)c1c(O)c(C2CC(C)(N(C)C)C(O)C(C)O2)cc(C2CC(N(C)C)C(O)C(C)O2)c1C3=O (stereo unspecified)
- survivor count (dose: 400.0 mg/kg/injection, schedule: Q01DX001 (ip), vehicle: saline with Tween-80): 0 of 6

SMILES: O=C(O)c1cc(Br)cc(I)c1Cl
- survivor count (dose: 400.0 mg/kg/injection, schedule: Q04DX002 (ip), vehicle: Klucel (hydroxypropylcellulose) (HPC)): 1 of 3

SMILES: Cc1ccc(OCCOc2ccc(C(=O)O)cc2)cc1
- survivor count [1]: 0 of 6
- survivor count [2]: 0 of 6
- survivor count [3]: 5 of 6

SMILES: O=C(O)c1cccc(CBr)c1CBr
- survivor count (dose: 25.0 mg/kg/injection, schedule: Q01DX009 (ip), vehicle: saline with Tween-80): 0 of 6

SMILES: COc1ccc(C(C#N)N(C)C)cc1OC (stereo unspecified)
- survivor count (dose: 200.0 mg/kg/injection, schedule: Q01DX001 (ip), vehicle: saline): 2 of 4
- survivor count (dose: 400.0 mg/kg/injection, schedule: Q01DX001 (ip), vehicle: saline): 0 of 4

SMILES: C=CCSC(C)CC (stereo unspecified)
- survivor count [4]: 6 of 6

SMILES: CC1CCC2(CC1)CCN(CCCN(C)C)CC2
- survivor count (dose: 340.0 mg/kg/injection, schedule: Q01DX015 (ip), vehicle: saline): 0 of 6

SMILES: COc1ccccc1/C=N\NC(=O)CCCC(=O)N/N=C/c1ccccc1OC
- survivor count (dose: 100.0 mg/kg/injection, schedule: Q01DX001 (ip), vehicle: saline): 4 of 4

SMILES: COc1cc(N(C)C)c(OC)cc1C=O
- survivor count [3]: 3 of 6

SMILES: COC(=O)/C=C(/Nc1cc(Cl)cc(Cl)c1)C(=O)OC
- survivor count (dose: 200.0 mg/kg/injection, schedule: Q04DX003 (ip), vehicle: other): 6 of 6

SMILES: CC(C)CN1CCCC(=O)C(O)CCC1 (stereo unspecified)
- survivor count (dose: 200.0 mg/kg/injection, schedule: Q01DX001 (ip), vehicle: acetone): 1 of 6
- survivor count (dose: 400.0 mg/kg/injection, schedule: Q01DX001 (ip), vehicle: acetone): 1 of 6

SMILES: COC(CBr)c1ccccc1 (stereo unspecified)
- survivor count (dose: 150.0 mg/kg/injection, schedule: Q01DX009 (ip), vehicle: Klucel (hydroxypropylcellulose) (HPC)): 0 of 6
- survivor count (dose: 225.0 mg/kg/injection, schedule: Q01DX009 (ip), vehicle: Klucel (hydroxypropylcellulose) (HPC)): 0 of 6
- survivor count (dose: 335.0 mg/kg/injection, schedule: Q01DX009 (ip), vehicle: Klucel (hydroxypropylcellulose) (HPC)): 0 of 6

SMILES: Cc1cccc(-n2c(N)cc(=O)[nH]c2=S)n1
- survivor count [5]: 0 of 6

SMILES: FC(Cl)(Cl)c1nc2nc(Cl)c(Cl)nc2[nH]1
- survivor count (dose: 200.0 mg/kg/injection, schedule: Q01DX009 (ip), vehicle: water): 1 of 6
- survivor count (dose: 400.0 mg/kg/injection, schedule: Q01DX009 (ip), vehicle: water): 1 of 6

SMILES: COCC(=O)Oc1cc(-c2ccc(C)cc2C)c(OC(=O)COC)c(-c2ccc(C)cc2C)c1
- survivor count (dose: 75.0 mg/kg/injection, schedule: Q04DX003 (ip), vehicle: Klucel (hydroxypropylcellulose) (HPC)): 6 of 6
- survivor count (dose: 150.0 mg/kg/injection, schedule: Q04DX003 (ip), vehicle: Klucel (hydroxypropylcellulose) (HPC)): 5 of 6

SMILES: CC(C)(C)NP(=O)(NC(C)(C)C)c1ccc([N+](=O)[O-])cc1
- survivor count (dose: 200.0 mg/kg/injection, schedule: Q04DX003 (ip), vehicle: acetone): 6 of 6

SMILES: CNc1ccc(C(=O)O)cc1I
- survivor count [1]: 6 of 6
- survivor count [2]: 6 of 6
- survivor count [3]: 6 of 6

SMILES: O=C(O)/C(=C/c1ccccc1)c1ccccc1
- survivor count [6]: 0 of 3 and 2 of 3

SMILES: CC12CCC(C(=N/O)/C1=N\O)C2(C)C (stereo unspecified)
- survivor count [1]: 4 of 6
- survivor count (dose: 200.0 mg/kg/injection, schedule: Q04DX003 (ip), vehicle: Klucel (hydroxypropylcellulose) (HPC)): 5 of 6
- survivor count (dose: 400.0 mg/kg/injection, schedule: Q04DX003 (ip), vehicle: Klucel (hydroxypropylcellulose) (HPC)): 1 of 6

SMILES: CCC1=C/C(=C\c2ccc3c(c2)OCO3)C(=O)S1
- survivor count (dose: 100.0 mg/kg/injection, schedule: Q04DX002 (ip), vehicle: saline with Tween-80): 3 of 3

SMILES: O=C(O)CCCCOc1ccc([N+](=O)[O-])cc1Cl
- survivor count [3]: 0 of 6

SMILES: CCCCCCCCCCS
- survivor count (dose: 400.0 mg/kg/injection, schedule: Q01DX001 (ip), vehicle: carboxymethylcellulose (CMC)): 1 of 4

SMILES: C=CCn1cnc(=N)c2[nH]cnc21
- survivor count [7]: 0 of 6

SMILES: Fc1c(F)c(-c2c(F)c(F)c(S)c(F)c2F)c(F)c(F)c1S
- survivor count [6]: 0 of 3

SMILES: CC1CCN(C(=S)[S-])CC1.CC1CCN(C(=S)[S-])CC1.[Zn]
- survivor count (dose: 200.0 mg/kg/injection, schedule: Q04DX003 (ip), vehicle: saline): 6 of 6
- survivor count [7]: 3 of 6

SMILES: COc1ccc2c(ccc[n+]2C)c1
- survivor count (dose: 50.0 mg/kg/injection, schedule: Q01DX009 (ip), vehicle: saline): 1 of 3
- survivor count (dose: 75.0 mg/kg/injection, schedule: Q01DX009 (ip), vehicle: saline): 0 of 6
- survivor count (dose: 100.0 mg/kg/injection, schedule: Q01DX009 (ip), vehicle: saline): 0 of 3
- survivor count (dose: 100.0 mg/kg/injection, schedule: Q04DX003 (ip), vehicle: saline with Tween-80): 3 of 6
- survivor count (dose: 150.0 mg/kg/injection, schedule: Q01DX001 (ip), vehicle: carboxymethylcellulose (CMC)): 3 of 6
- survivor count [5]: 0 of 3
- survivor count (dose: 200.0 mg/kg/injection, schedule: Q04DX003 (ip), vehicle: saline with Tween-80): 0 of 6
- survivor count (dose: 300.0 mg/kg/injection, schedule: Q01DX001 (ip), vehicle: carboxymethylcellulose (CMC)): 0 of 6
- survivor count [4]: 0 of 6

SMILES: CCCC1(CCC)CN(C)C1=O
- survivor count [7]: 1 of 4

SMILES: O=c1c2nccnc2[nH]n1-c1ccccc1
- survivor count (dose: 12.5 mg/kg/injection, schedule: Q04DX003 (ip), vehicle: Klucel (hydroxypropylcellulose) (HPC)): 6 of 6

SMILES: O=C(/C=C/c1cccnc1)/C=C/c1cccnc1
- survivor count (dose: 35.0 mg/kg/injection, schedule: Q01DX009 (ip), vehicle: Klucel (hydroxypropylcellulose) (HPC)): 3 of 6
- survivor count (dose: 55.0 mg/kg/injection, schedule: Q01DX009 (ip), vehicle: Klucel (hydroxypropylcellulose) (HPC)): 2 of 6
